US20260232703A1, “USE OF A SYK INHIBITOR FOR THE TREATMENT OF CHEMICAL OR RADIATION INDUCED LUNG INJURY” (Rigel Pharmaceuticals, Inc., priority 2023, published 2026)
The name of at least one read-out is uncertain.

Assay: Oral bioavailability of the phosphate prodrug versus the active drug
Type: in vivo
Settings: progroup -CH2-O-P(O)(OH)2 at ring nitrogen; compared with Compound 1

Compound: COc1cc(Nc2ncc(F)c(Nc3ccc4c(n3)N(COP(=O)(O)O)C(=O)C(C)(C)O4)n2)cc(OC)c1OC [Compound 4]
- oral bioavailability relative to Compound 1: increased dramatically
